Values from PubChem BioAssay AID1259424 (University of Nebraska Medical Center, 2018)
The deposit covers about 14,000 reagents; below is a random part of them. 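Higher correlation or smaller distance means closer resemblance to KSR1 loss; control wells, including KSR1 knockdowns, recur on many plates.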 Not given: the time to read-out.

- Assay: 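Rank knockdowns across the genome by resemblance to the KSR1 depletion profile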 (primary screen)
- Cell system: human HCT116 colon cancer cells
- Knock-down reagent: siRNA pool against human genes, 50 nM
- Read-out: 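Six signature mRNAs by branched-DNA multiplex assay, scaled to two housekeeping genes and non-targeting median, log2; matched to mean KSR1 knockdown profile by Pearson correlation and euclidean distance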
- Direction: mean correlation with KSR1 profile and KSR1 correlation: higher = expression change more like KSR1 knockdown; mean distance from KSR1 profile: higher = expression change less like KSR1 knockdown

target,PubChem SID,mean correlation with KSR1 profile,mean distance from KSR1 profile,"KSR1 correlation, replicate 1","KSR1 correlation, replicate 2","KSR1 correlation, replicate 3"
PMM1,SID363993842,-0.0567,4.22,-0.0711,0.866,-0.102
IL36R,SID363994915,-0.0366,1.27,0.125,-0.112,-0.0902
DDB2,SID363991443,0.855,0.696,0.778,0.593,0.948
NR5A1,SID363995901,0.257,1.92,0.0688,0.589,-0.411
OR2F1,SID363998264,-0.022,3.25,0.0738,0.0731,-0.0259
GAS1,SID363993258,0.467,2.14,0.627,0.346,0.222
FMO1,SID363993231,-0.537,3.06,-0.697,-0.655,-0.129
PDE1A,SID363995958,0.262,1.99,0.0875,0.265,0.348
SLIT3,SID363994210,-0.256,1.92,-0.264,-0.356,-0.28
SETD1A,SID363999050,-0.127,0.951,-0.158,0.244,-0.198
TLCD3A,SID364003063,0.28,1.85,0.375,0.286,0.264
FANCD2,SID364004314,0.013,2.11,-0.12,-0.0807,0.0597
PIP5K1P1,SID364004737,-0.372,3.5,-0.394,-0.382,-0.257
RIN2,SID364001314,-0.431,2.81,-0.473,-0.456,-0.427
RAB5C,SID363995554,-0.828,1.99,-0.739,-0.919,-0.828
CASP9,SID363992514,-0.71,2.1,-0.666,-0.778,-0.683
MYLIP,SID363998386,0.296,1.71,-0.229,0.186,-0.144
DNPEP,SID363998049,0.0687,3.58,0.262,-0.281,0.0628
HBG2,SID363991520,0.263,1.52,0.347,0.024,0.157
TBC1D9B,SID363999268,-0.338,2.49,-0.288,-0.309,-0.225
BRD1,SID363998949,0.405,0.899,0.557,0.338,0.147
TMEM163,SID364003497,0.473,1.59,0.0301,0.508,0.637
PIPOX,SID364000164,-0.566,1.97,-0.637,-0.258,-0.41
GUCY1B1,SID363992144,0.457,1.22,0.386,0.603,0.414
IPO9,SID364000767,0.546,3.37,0.552,0.399,0.423
TRMT10C,SID364000553,-0.541,1.96,-0.306,-0.786,-0.66
LRFN4,SID364002697,-0.393,2.26,-0.533,-0.412,-0.339
GLUD2,SID363998034,-0.105,2.29,-0.23,-0.09,-0.143
CMBL,SID364004580,0.221,2.44,0.248,0.171,0.182
ICE2,SID364002912,-0.731,2.18,-0.589,-0.345,-0.862
ALDOB,SID363991374,0.45,1.61,0.287,0.251,0.537
MIF4GD,SID364001775,0.146,2.82,0.339,-0.00887,0.171
SLC44A1,SID364002336,0.35,1.63,-0.177,0.402,0.578

The list goes on; the last 7 above are carried over.
target,PubChem SID,mean correlation with KSR1 profile,mean distance from KSR1 profile,"KSR1 correlation, replicate 1","KSR1 correlation, replicate 2","KSR1 correlation, replicate 3"
LRFN4,SID364002697,-0.393,2.26,-0.533,-0.412,-0.339
GLUD2,SID363998034,-0.105,2.29,-0.23,-0.09,-0.143
CMBL,SID364004580,0.221,2.44,0.248,0.171,0.182
ICE2,SID364002912,-0.731,2.18,-0.589,-0.345,-0.862
ALDOB,SID363991374,0.45,1.61,0.287,0.251,0.537
MIF4GD,SID364001775,0.146,2.82,0.339,-0.00887,0.171
SLC44A1,SID364002336,0.35,1.63,-0.177,0.402,0.578
EIF4E2,SID363995798,0.561,1.87,0.687,0.601,0.258
DCSTAMP,SID364003440,0.67,1.63,0.594,0.702,0.553
IPCEF1,SID363999567,-0.342,1.17,-0.207,-0.0745,-0.811
DNAAF5,SID364000538,0.236,1.5,0.265,0.0237,0.113
SHISA5,SID364000133,0.423,4.26,0.168,0.529,0.61
MMP19,SID363993607,0.847,1.14,0.629,0.838,0.698
KCNH1,SID363993438,-0.234,2.62,-0.327,-0.192,-0.203
BAG1,SID363995313,0.0152,3.2,0.168,-0.403,-0.109
RGS4,SID363996508,0.792,1.77,0.791,0.886,0.772
UBE2E1,SID363994457,-0.0678,3.07,-0.0367,-0.11,-0.123
H3C1,SID363994613,-0.577,3.31,-0.378,-0.646,-0.64
AATF,SID363998083,-0.666,2.96,-0.471,-0.643,-0.726
KIFC1,SID364005468,0.0286,2.41,-0.0461,0.167,0.0198
SLC37A3,SID364003882,0.656,1.6,0.495,0.696,0.53
TMEM177,SID364003368,0.624,1.3,0.356,0.671,0.566
CEP68,SID363999329,-0.0533,1.47,-0.347,-0.0301,0.137
PCDHGA9,SID364001248,-0.816,2.45,-0.757,-0.854,-0.502
